Measured data: PubChem BioAssay AID602196 (INSERM, 2012)
Here is a random part of about 23,000 reagents. Over the whole deposit, 455 (2%) got an active call. 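Active includes both protection and sensitisation; some change values fall well beyond the stated -50 to +50 range.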 Reagent sequences are not shown. Not stated in the record: the amount of reagent.

Screen: 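Knock-downs that protect lung cancer cells from cisplatin or sensitise them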
System: human A549 lung cancer cells
Reagents: siRNA pair against human genes
Time to read-out: 48 h transfection before cisplatin; time from cisplatin to read-out not stated
Conditions: cisplatin at a dose killing half of control-siRNA cells; exact dose and duration not given
Measured: 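Shift in cisplatin death relative to control siRNA, from -50 (all cells die) to +50 (no cells die); siRNAs harmful on their own scored 0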
Reading the numbers: two-siRNA summed score (-2 to +2): higher = both siRNAs protect from cisplatin killing; -2 means both sensitise; mean protection from cisplatin (shift in death) and protection from cisplatin (shift in death), siRNA C and protection from cisplatin (shift in death), siRNA D: higher = protection from cisplatin killing
Active means: 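Each siRNA scores 0 if harmful alone by LDH or WST-1, otherwise +1 if it reduces and -1 if it increases cisplatin killing; a gene is active when both siRNAs agree (sum +2 or -2)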
Meaning of the calls: active = both siRNAs shift cisplatin killing the same way; inactive = no consistent shift, or siRNA harmful alone

gene knocked down | two-siRNA summed score (-2 to +2) | mean protection from cisplatin (shift in death) (%) | protection from cisplatin (shift in death), siRNA C (%) | protection from cisplatin (shift in death), siRNA D (%) | Call
PARP15 (poly(ADP-ribose) polymerase family member 15) | 0 | 3 | -7.5 | 13.4 | inactive
LOC387931 | 0 | 7.8 | 1.9 | 13.8 | inactive
IL17RD (interleukin 17 receptor D) | -1 | -3.7 | 8.4 | -15.7 | inactive
NHSL3 (NHS like 3) | 0 | 5.5 | 7.5 | 3.6 | inactive
FBXL14 (F-box and leucine rich repeat protein 14) | 1 | 18.2 | 12.2 | 24.2 | inactive
PROCA1 (protein interacting with cyclin A1) | 0 | 1 | 3.8 | -1.8 | inactive
GCC1 (GRIP and coiled-coil domain containing 1) | 1 | 1.2 | -14.6 | 17.1 | inactive
COMMD10 (COMM domain containing 10) | 0 | 1.4 | 4.6 | -1.8 | inactive
NEUROD1 (neuronal differentiation 1) | 1 | 9.8 | -2.4 | 22 | inactive
AK2 (adenylate kinase 2) | 0 | 2.1 | -9 | 13.3 | inactive
LINC01299 (long independently transcribed non-coding RNA 1299) | 0 | 11.3 | 12.7 | 9.9 | inactive
LOC440172 | 0 | 7.5 | 11.3 | 3.7 | inactive
LOC388604 | 0 | 7.6 | 3.6 | 11.6 | inactive
PITX3 (paired like homeodomain 3) | -1 | 21.3 | -14.8 | 57.5 | inactive
MCL1 (MCL1 apoptosis regulator, BCL2 family member) | -1 | -32.4 | -6.2 | -58.7 | inactive
BIN2 (bridging integrator 2) | 0 | 4.7 | 6.4 | 3.1 | inactive
HES7 (hes family bHLH transcription factor 7) | 0 | -1.4 | -1.7 | -1 | inactive
LYN (LYN proto-oncogene, Src family tyrosine kinase) | 1 | 6.8 | 23.5 | -9.9 | inactive
MAGEE2 (MAGE family member E2) | 0 | -2.3 | 2 | -6.6 | inactive
BAG3 (BAG cochaperone 3) | 0 | 6.4 | -0.8 | 13.6 | inactive
MMP21 (matrix metallopeptidase 21) | 0 | 9.4 | 14.5 | 4.3 | inactive
ZNF326 (zinc finger protein 326) | 0 | 6.3 | 3.4 | 9.1 | inactive
ZNF521 (zinc finger protein 521) | 0 | 5.5 | 14.8 | -3.8 | inactive
ZIC4 (Zic family zinc finger 4) | 0 | 3.7 | 6.5 | 0.8 | inactive
ZNF565 (zinc finger protein 565) | 0 | 1.6 | 5.3 | -2.1 | inactive
UBE2C (ubiquitin conjugating enzyme E2 C) | -2 | -30.7 | -18.6 | -42.8 | active
DNAAF3 (dynein axonemal assembly factor 3) | 0 | 18.5 | 44.4 | -7.4 | inactive
LOC440631 | 0 | 9 | 9.1 | 8.9 | inactive
SYNCRIP (synaptotagmin binding cytoplasmic RNA interacting protein) | 1 | 12.2 | 15.8 | 8.6 | inactive
FAAP20 (FA core complex associated protein 20) | 0 | -3.6 | -2.6 | -4.7 | inactive
SOAT2 (sterol O-acyltransferase 2) | 0 | 9.7 | 7.5 | 11.9 | inactive
INPP5K (inositol polyphosphate-5-phosphatase K) | 0 | 12.9 | 9.2 | 16.5 | inactive
COL1A2 (collagen type I alpha 2 chain) | 0 | 10.7 | 8.7 | 12.7 | inactive
SPAAR (small regulatory polypeptide of amino acid response) | 0 | 4 | -4.6 | 12.6 | inactive
MARK4 (microtubule affinity regulating kinase 4) | 1 | 32.5 | 30.2 | 34.8 | inactive
ZNF132 (zinc finger protein 132) | 0 | 6.7 | 6.5 | 6.9 | inactive
MGMT (O-6-methylguanine-DNA methyltransferase) | -1 | -14.7 | -9.9 | -19.5 | inactive
TTC38 (tetratricopeptide repeat domain 38) | 0 | 3.3 | -1.3 | 8 | inactive
PPIAP80 (peptidylprolyl isomerase A pseudogene 80) | 0 | 14.7 | 14.3 | 15.2 | inactive

Laid out differently: results already given.
gene knocked down,two-siRNA summed score (-2 to +2),mean protection from cisplatin (shift in death) (%),"protection from cisplatin (shift in death), siRNA C (%)","protection from cisplatin (shift in death), siRNA D (%)",Call
LOC440172,0,7.5,11.3,3.7,inactive
LOC388604,0,7.6,3.6,11.6,inactive
PITX3 (paired like homeodomain 3),-1,21.3,-14.8,57.5,inactive
"MCL1 (MCL1 apoptosis regulator, BCL2 family member)",-1,-32.4,-6.2,-58.7,inactive
BIN2 (bridging integrator 2),0,4.7,6.4,3.1,inactive
HES7 (hes family bHLH transcription factor 7),0,-1.4,-1.7,-1,inactive
"LYN (LYN proto-oncogene, Src family tyrosine kinase)",1,6.8,23.5,-9.9,inactive
MAGEE2 (MAGE family member E2),0,-2.3,2,-6.6,inactive

The listing continues:
gene knocked down | two-siRNA summed score (-2 to +2) | mean protection from cisplatin (shift in death) (%) | protection from cisplatin (shift in death), siRNA C (%) | protection from cisplatin (shift in death), siRNA D (%) | Call
NOL4L-DT (NOL4L divergent transcript) | 0 | -1.3 | -8.9 | 6.3 | inactive
FLJ00312 | 1 | 10.3 | 26.1 | -5.5 | inactive
LOC400644 | 0 | -5.7 | -14.4 | 3.1 | inactive
LOC123855 | 0 | 7.1 | 6.2 | 8 | inactive
PRR34 (PRR34 long non-coding RNA) | 0 | 18.2 | 11.6 | 24.8 | inactive
RAB36 (RAB36, member RAS oncogene family) | -1 | -14.1 | -26.9 | -1.3 | inactive
ADPRS (ADP-ribosylserine hydrolase) | 0 | -2.8 | -12.2 | 6.5 | inactive
HDAC5 (histone deacetylase 5) | 0 | 2.4 | 3.4 | 1.5 | inactive
LOC399972 | 0 | 9.6 | 16.2 | 3.1 | inactive
SASH3 (SAM and SH3 domain containing 3) | -1 | -7.9 | -3.4 | -12.4 | inactive
IGFL1 (IGF like family member 1) | 1 | 17.7 | 17.3 | 18.1 | inactive
TNS4 (tensin 4) | 0 | -4.9 | -9.6 | -0.1 | inactive
LOC401491 | 0 | 13.4 | 10.2 | 16.5 | inactive
TCAF2 (TRPM8 channel associated factor 2) | 0 | 4.4 | 3.8 | 4.9 | inactive
EFNB2 (ephrin B2) | -1 | -6.4 | 16.1 | -28.9 | inactive
LOC390816 | 0 | 0.4 | 1.6 | -0.8 | inactive
ATP6V1F (ATPase H+ transporting V1 subunit F) | 0 | -1.3 | 1.8 | -4.5 | inactive
GFM2 (GTP dependent ribosome recycling factor mitochondrial GFM2) | 0 | 1.9 | 3.6 | 0.1 | inactive
RGL4 (ral guanine nucleotide dissociation stimulator like 4) | -1 | -7.2 | -2.1 | -12.3 | inactive
SALL3 (spalt like transcription factor 3) | 0 | 21.2 | 21.9 | 20.5 | inactive
SH3RF1 (SH3 domain containing ring finger 1) | 0 | 7.1 | 16.7 | -2.4 | inactive
TBC1D10B (TBC1 domain family member 10B) | 0 | 11.1 | 8.8 | 13.4 | inactive
LOC285344 | 1 | 8.7 | -1.6 | 19.1 | inactive
PMEPA1 (prostate transmembrane protein, androgen induced 1) | 0 | -5.9 | -4.4 | -7.3 | inactive
LOC391445 | 1 | 13.6 | 14.2 | 13.1 | inactive
TMED1 (transmembrane p24 trafficking protein 1) | -1 | -19.5 | 2.5 | -41.5 | inactive
BARX1 (BARX homeobox 1) | 1 | 12.7 | 20.4 | 5 | inactive
LOC440030 | 0 | 9 | 13.2 | 4.9 | inactive
IDNK (IDNK gluconokinase) | 0 | 3.7 | 1.2 | 6.2 | inactive
LOC126669 | 0 | 14.6 | 15.7 | 13.4 | inactive
SPINK1 (serine peptidase inhibitor Kazal type 1) | -1 | -16 | -15.4 | -16.6 | inactive
SINHCAF (SIN3-HDAC complex associated factor) | 0 | 10.3 | 13 | 7.6 | inactive
OR4K14 (olfactory receptor family 4 subfamily K member 14) | 0 | -1.8 | 7.9 | -11.5 | inactive
HASPIN (histone H3 associated protein kinase) | -1 | -16.9 | -15.1 | -18.7 | inactive
